Measured values from article PMC7819943, “Rice protein-binding microarrays: a tool to detect cis-acting elements near promoter regions in rice”.
The list shows a part of the results.

By UniProt entry, the sequences of proteins in these tests, tags left out.
UniProt Q0JBA9, entry or part of it: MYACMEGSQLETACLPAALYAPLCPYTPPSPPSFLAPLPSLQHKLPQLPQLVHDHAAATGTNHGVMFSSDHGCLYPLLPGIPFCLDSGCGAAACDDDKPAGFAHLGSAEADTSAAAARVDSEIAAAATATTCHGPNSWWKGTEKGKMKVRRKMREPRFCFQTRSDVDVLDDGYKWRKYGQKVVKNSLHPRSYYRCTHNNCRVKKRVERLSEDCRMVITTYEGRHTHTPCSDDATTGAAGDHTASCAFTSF

Target: OsWRKY34 (Oryza sativa, UniProt Q0JBA9 1-250)
Test: protein-binding microarray (RPBM); PBS, 2% BSA, 51.3 ng/ul salmon testes DNA, 50 uM zinc acetate, 200 nM TF, 25 C, 1 h; high values mean tight binding
Conditions: protein: recombinant; tags: N-terminal polyhistidine and DsRed monomer fusion (pET32a); label: CyDye5-dUTP incorporated in the synthesized complementary strand; 3' TTTTT single-stranded linker to array surface; dsDNA, one strand shown
Procedure, shortened: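 Binding signal is defined as the fluorescence intensity of each feature in arbitrary units, read on an Axon 4000B scanner. Transcription factors with N-terminal polyhistidine and DsRed fusions came from E. coli BL21-CodonPlus and were purified on Ni–NTA. They were incubated at 200 nM for 1 h at 25 °C on a custom Agilent array that had been made double-stranded with Cy5-dUTP, with 50 µM zinc acetate present, and the array was washed.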

| Sequence | binding signal |
| --- | --- |
| ACCAAAGACCGATGGTTCGGTCTAAACCATCGGTCTGATTCGGAGTCACCTAGTGCAG | 8890 fluorescence intensity (a.u.) |
| GACCCCGACTCTGCTTCCCATCGCCATTGCTGCCCTCCTCCGGAGTCACCTAGTGCAG | 9700 fluorescence intensity (a.u.) |
| AGAGGTGAGATGCTTCCCAGTGGGTTCTTGATCCGGCCTACGGAGTCACCTAGTGCAG | 8150 fluorescence intensity (a.u.) |
| GTACACAGCCACATGCTTACCTTGACAGTTATTTTGACACCGGAGTCACCTAGTGCAG | 9270 fluorescence intensity (a.u.) |
| TCTCCTCCACCTCGTCGTCGTCGCCTCTCCACCTACCGGACGGAGTCACCTAGTGCAG | 8220 fluorescence intensity (a.u.) |
| AGAGGGATGGGTGTGGGCAGCGGTGGGCGGTAAGGCACCACGGAGTCACCTAGTGCAG | 9360 fluorescence intensity (a.u.) |
| GTCCTCTTGCCTCGTCGTGTCGCACCTCATGATTTACGTTCGGAGTCACCTAGTGCAG | 10100 fluorescence intensity (a.u.) |
| GCTCTAATTGGCTATCTGTACATCTGTTTGTTATTCTAATCGGAGTCACCTAGTGCAG | 11300 fluorescence intensity (a.u.) |
| AGTTGTGGAGCTGTCTAAACCCATCTCTACTTCTCTACTTCGGAGTCACCTAGTGCAG | 8200 fluorescence intensity (a.u.) |
| GCTTTCTAGTCGAATTTCTCGTTGGTTTCATTCGACTATACGGAGTCACCTAGTGCAG | 13600 fluorescence intensity (a.u.) |
| TCCTTTTTAGTATACCCACCTATTTCTAACCGTCAAATCCCGGAGTCACCTAGTGCAG | 9960 fluorescence intensity (a.u.) |
| AACCGCGGGTCCCAAGAGAATATAGTCTGTTCTTCTCGTTCGGAGTCACCTAGTGCAG | 8390 fluorescence intensity (a.u.) |
| AAAGACACCCTGGCTTCCATGCCCAACGTTTGACCGTCCGCGGAGTCACCTAGTGCAG | 9700 fluorescence intensity (a.u.) |
| GCGCCTAGCCTTCCGTTCGCCCACCGCACCGCGCCACGACCGGAGTCACCTAGTGCAG | 8370 fluorescence intensity (a.u.) |
| GCTGGATTACCACGACATCTTCCTCCCGTTCCTGGACAGGCGGAGTCACCTAGTGCAG | 9170 fluorescence intensity (a.u.) |
| TTTAATAAAAACAATTCCTCTTTTTTTTCCAATTTTTCTACGGAGTCACCTAGTGCAG | 9160 fluorescence intensity (a.u.) |
| GTACTATTCAAAGGTGCTCTTAGTTTTTTTTTGGCATACACGGAGTCACCTAGTGCAG | 9020 fluorescence intensity (a.u.) |
| CTCCACTCCTGCTCGTCTCCTCCTCTCTTCCATTCCTTCGCGGAGTCACCTAGTGCAG | 10700 fluorescence intensity (a.u.) |
| ACCGTCTCATGTTTGCTTGGTCTCTAAATTTCTTCCAAATCGGAGTCACCTAGTGCAG | 11800 fluorescence intensity (a.u.) |
| TAGATTGCTCATTCTTTCTCTTTATCTTCCTATCTTCTTCCGGAGTCACCTAGTGCAG | 9970 fluorescence intensity (a.u.) |
| GGCGCCCTTGCGAGCACGTAATCCCGGCCCGGTCACCCAACGGAGTCACCTAGTGCAG | 10200 fluorescence intensity (a.u.) |

| Sequence | binding signal |
| --- | --- |
| TCCATCATCAATCTATCCACTCCTTTATTTTTCCCATATCCGGAGTCACCTAGTGCAG | 8820 fluorescence intensity (a.u.) |
| TCCTTTTTATTCTCTCTCCCTTTTACACTCCTCGATCTCCCGGAGTCACCTAGTGCAG | 11700 fluorescence intensity (a.u.) |
| GTTCATGCCGATCACGTACTATCTCATCTTCCCACTCAAACGGAGTCACCTAGTGCAG | 11300 fluorescence intensity (a.u.) |
| TCCACTTCTTGCTCGCCGCCGCCGCCGCCGCCGCCGCCGGCGGAGTCACCTAGTGCAG | 13700 fluorescence intensity (a.u.) |
| TTCTTGGTTTCTTTCATCCACGGCAAACGTTGGAATTCGTCGGAGTCACCTAGTGCAG | 8860 fluorescence intensity (a.u.) |
| ACCGGGCAGCTTCTCTCTCTCGCGTTGCTGCCGCGCGCGGCGGAGTCACCTAGTGCAG | 10200 fluorescence intensity (a.u.) |
| TTTATCTCGACCATATTCTGTACTTTAAAATGTGATTTTACGGAGTCACCTAGTGCAG | 9380 fluorescence intensity (a.u.) |
| CGTGATTTACCATTTACGTTACGAGTAATCTCCCTATGAACGGAGTCACCTAGTGCAG | 8630 fluorescence intensity (a.u.) |
| ATCGTTTGGGGTCATTTTCTGCGGTTTGGTGGTGTTGTGCCGGAGTCACCTAGTGCAG | 11100 fluorescence intensity (a.u.) |
| AGTGGTAGTTGTAGTTTGGTCGGTCATTCGATCTCGCTATCGGAGTCACCTAGTGCAG | 12300 fluorescence intensity (a.u.) |
| ACATGGGCTGGGCTGGGCTGGGCTCTTCTTCCTTTTTGTTCGGAGTCACCTAGTGCAG | 21900 fluorescence intensity (a.u.) |
| CTTTGGTGGTTAGTACCCTATATATTGCGCGTCTTAAAATCGGAGTCACCTAGTGCAG | 8740 fluorescence intensity (a.u.) |
| GTAAGTATACTAGTACCAGTAGAGTGCATGTTTGCCAGCCCGGAGTCACCTAGTGCAG | 8140 fluorescence intensity (a.u.) |
| ATTCGCAGCGTTGACCAGCATTCATATTCCGAATTCCGAGCGGAGTCACCTAGTGCAG | 11200 fluorescence intensity (a.u.) |
| AACTTTCTCAAGTCTTTCATGCATGCAGATATATATTCTCCGGAGTCACCTAGTGCAG | 8450 fluorescence intensity (a.u.) |
| AAATACACAATCTTTTCTCATCACACCCTTCCATTTTTTTCGGAGTCACCTAGTGCAG | 8940 fluorescence intensity (a.u.) |
| AAGATTCCAATCGGGAGGCGGCGGGGCGGCGGAGAAGCTCCGGAGTCACCTAGTGCAG | 14300 fluorescence intensity (a.u.) |
| ATAACCCGCTGCTATTCTCTCTTCTCATTTATCTTCTTAACGGAGTCACCTAGTGCAG | 8960 fluorescence intensity (a.u.) |
| GGCGGGAGCGTGAAGGGGAGGGACATGGCGGGGAGCGGATCGGAGTCACCTAGTGCAG | 9940 fluorescence intensity (a.u.) |
| CTATTACCAATTGCAAATTCTTTTTTGGTTTTCTATCAGTCGGAGTCACCTAGTGCAG | 9250 fluorescence intensity (a.u.) |
| CTGCTGGCCTCTTGCCCAGGCTCTGCCGTACTTTGCCTTTCGGAGTCACCTAGTGCAG | 8020 fluorescence intensity (a.u.) |

Some of the entries so far, tab-delimited:
Sequence	binding signal
TCCATCATCAATCTATCCACTCCTTTATTTTTCCCATATCCGGAGTCACCTAGTGCAG	8820 fluorescence intensity (a.u.)
TCCTTTTTATTCTCTCTCCCTTTTACACTCCTCGATCTCCCGGAGTCACCTAGTGCAG	11700 fluorescence intensity (a.u.)
GTTCATGCCGATCACGTACTATCTCATCTTCCCACTCAAACGGAGTCACCTAGTGCAG	11300 fluorescence intensity (a.u.)
TCCACTTCTTGCTCGCCGCCGCCGCCGCCGCCGCCGCCGGCGGAGTCACCTAGTGCAG	13700 fluorescence intensity (a.u.)
TTCTTGGTTTCTTTCATCCACGGCAAACGTTGGAATTCGTCGGAGTCACCTAGTGCAG	8860 fluorescence intensity (a.u.)
ACCGGGCAGCTTCTCTCTCTCGCGTTGCTGCCGCGCGCGGCGGAGTCACCTAGTGCAG	10200 fluorescence intensity (a.u.)
TTTATCTCGACCATATTCTGTACTTTAAAATGTGATTTTACGGAGTCACCTAGTGCAG	9380 fluorescence intensity (a.u.)
CGTGATTTACCATTTACGTTACGAGTAATCTCCCTATGAACGGAGTCACCTAGTGCAG	8630 fluorescence intensity (a.u.)
ATCGTTTGGGGTCATTTTCTGCGGTTTGGTGGTGTTGTGCCGGAGTCACCTAGTGCAG	11100 fluorescence intensity (a.u.)
AGTGGTAGTTGTAGTTTGGTCGGTCATTCGATCTCGCTATCGGAGTCACCTAGTGCAG	12300 fluorescence intensity (a.u.)
ACATGGGCTGGGCTGGGCTGGGCTCTTCTTCCTTTTTGTTCGGAGTCACCTAGTGCAG	21900 fluorescence intensity (a.u.)
CTTTGGTGGTTAGTACCCTATATATTGCGCGTCTTAAAATCGGAGTCACCTAGTGCAG	8740 fluorescence intensity (a.u.)
GTAAGTATACTAGTACCAGTAGAGTGCATGTTTGCCAGCCCGGAGTCACCTAGTGCAG	8140 fluorescence intensity (a.u.)
